Results on 2 molecules are retold here after PMC3688601.

Chains of the proteins cited; added tags and fusions are not shown.
UniProt P13569: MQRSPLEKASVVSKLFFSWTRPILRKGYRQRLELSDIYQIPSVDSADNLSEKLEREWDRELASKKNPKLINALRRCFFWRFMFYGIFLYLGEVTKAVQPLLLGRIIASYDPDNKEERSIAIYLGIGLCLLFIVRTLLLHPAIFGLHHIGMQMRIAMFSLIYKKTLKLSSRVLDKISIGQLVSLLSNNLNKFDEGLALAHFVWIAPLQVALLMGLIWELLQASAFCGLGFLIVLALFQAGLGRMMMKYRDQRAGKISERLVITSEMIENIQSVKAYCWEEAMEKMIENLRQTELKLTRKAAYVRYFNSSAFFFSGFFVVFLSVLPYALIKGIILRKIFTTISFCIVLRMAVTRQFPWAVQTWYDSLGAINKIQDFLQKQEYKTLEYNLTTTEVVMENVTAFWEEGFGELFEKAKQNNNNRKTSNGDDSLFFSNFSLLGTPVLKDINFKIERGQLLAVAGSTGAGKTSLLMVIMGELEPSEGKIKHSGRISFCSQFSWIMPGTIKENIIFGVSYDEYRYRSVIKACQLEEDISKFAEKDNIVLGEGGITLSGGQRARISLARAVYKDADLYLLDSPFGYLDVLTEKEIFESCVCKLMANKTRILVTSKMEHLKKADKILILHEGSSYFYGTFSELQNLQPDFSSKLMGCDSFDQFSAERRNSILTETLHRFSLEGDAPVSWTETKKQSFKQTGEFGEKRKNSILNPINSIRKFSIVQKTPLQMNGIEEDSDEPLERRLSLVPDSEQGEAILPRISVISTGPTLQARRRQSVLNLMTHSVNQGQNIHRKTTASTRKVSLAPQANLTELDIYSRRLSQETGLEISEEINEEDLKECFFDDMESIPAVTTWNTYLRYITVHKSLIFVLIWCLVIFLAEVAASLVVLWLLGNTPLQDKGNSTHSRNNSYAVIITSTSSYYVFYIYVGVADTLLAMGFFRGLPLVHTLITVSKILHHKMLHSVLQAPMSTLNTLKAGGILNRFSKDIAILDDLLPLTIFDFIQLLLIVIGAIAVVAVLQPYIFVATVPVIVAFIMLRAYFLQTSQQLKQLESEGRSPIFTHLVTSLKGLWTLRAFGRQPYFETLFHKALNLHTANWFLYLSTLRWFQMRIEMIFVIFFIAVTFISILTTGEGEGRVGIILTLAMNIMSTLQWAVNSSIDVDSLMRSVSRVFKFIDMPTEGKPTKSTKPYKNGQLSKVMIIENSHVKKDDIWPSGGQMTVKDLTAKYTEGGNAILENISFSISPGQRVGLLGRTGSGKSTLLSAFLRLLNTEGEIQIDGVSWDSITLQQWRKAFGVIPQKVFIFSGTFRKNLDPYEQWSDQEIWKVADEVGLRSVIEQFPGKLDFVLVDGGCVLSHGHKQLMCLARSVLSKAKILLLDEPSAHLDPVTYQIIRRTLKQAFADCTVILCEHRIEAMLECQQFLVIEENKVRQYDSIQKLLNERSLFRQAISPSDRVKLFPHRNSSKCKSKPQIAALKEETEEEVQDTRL

In assay [1] the target is T1, HA-tagged MARCH2 (UniProt Q9P0N8).
T1 sequence: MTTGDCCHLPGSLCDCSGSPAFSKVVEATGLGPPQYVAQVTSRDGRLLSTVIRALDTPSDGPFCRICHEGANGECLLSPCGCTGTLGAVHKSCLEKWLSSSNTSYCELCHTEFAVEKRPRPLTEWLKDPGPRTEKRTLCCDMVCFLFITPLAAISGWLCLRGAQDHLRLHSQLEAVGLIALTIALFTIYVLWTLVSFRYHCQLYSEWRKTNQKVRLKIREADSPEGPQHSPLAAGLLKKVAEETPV
Description: co-IP; HEK293 cells co-transfected, lysates after 48 h (150 mM NaCl, 50 mM Tris-HCl pH 7.4, 1% Nonidet P-40); 500 µg supernatant with anti-HA affinity matrix at 4 °C overnight to precipitate the HA-tagged partner; immunoblot for the myc- or GFP-tagged partner; in Figure 1B also triple transfection with myc-STX6, which increased the myc-CAL precipitated by HA-MARCH2.

In assay [2] the target is T1, HA-tagged MARCH2. The description is as above. The source holds these as a separate data set.

Read-outs that look alike come from different tables or passages of the source. No constants are given. Whether binding was seen depends on the method and setting. Binding seen in cells or lysates may run through a third protein. Some entries that bind do so weakly or less than the wild type. Sequences can lack the tags named with a protein.

With “GFP-tagged wild-type CFTR (from UniProt P13569 1-1480)”, in the assay with HA-tagged MARCH2 [1], the binding result is reported as “binds”.

B1: myc-STX6 (protein, UniProt O43752 1-255)
chain: MSMEDPFFVVKGEVQKAVNTAQGLFQRWTELLQDPSTATREEIDWTTNELRNNLRSIEWDLEDLDETISIVEANPRKFNLDATELSIRKAFITSTRQVVRDMKDQMSTSSVQALAERKNRQALLGDSGSQNWSTGTTDKYGRLDRELQRANSHFIEEQQAQQQLIVEQQDEQLELVSGSIGVLKNMSQRIGGELEEQAVMLEDFSHELESTQSRLDNVMKKLAKVSHMTSDRRQWCAIAILFAVLLVVLILFLVL
On to B1, for which the binding entry with HA-tagged MARCH2 [2] was “binds”.
